Experiment [1] deals with Endogenous BRCA2 in HeLa cells (human (endogenous in HeLa)) (UniProt P51587). As to the kind of experiment: proximity ligation.
For experiment [2] the target is unchanged. As to the kind of experiment: proximity ligation. This is another data set of the same source.
The target in experiment [3] is T1, BRCA2_(1-40)HA-His (recombinant N-terminal BRCA2 fragment with a C-terminal HA tag) (human) (UniProt P51587).
T1 sequence: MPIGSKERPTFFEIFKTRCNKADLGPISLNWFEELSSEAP
In words: pull-down.

Sequences of proteins named here, by UniProt entry; tags and fusion partners are left off.
UniProt Q86TI2: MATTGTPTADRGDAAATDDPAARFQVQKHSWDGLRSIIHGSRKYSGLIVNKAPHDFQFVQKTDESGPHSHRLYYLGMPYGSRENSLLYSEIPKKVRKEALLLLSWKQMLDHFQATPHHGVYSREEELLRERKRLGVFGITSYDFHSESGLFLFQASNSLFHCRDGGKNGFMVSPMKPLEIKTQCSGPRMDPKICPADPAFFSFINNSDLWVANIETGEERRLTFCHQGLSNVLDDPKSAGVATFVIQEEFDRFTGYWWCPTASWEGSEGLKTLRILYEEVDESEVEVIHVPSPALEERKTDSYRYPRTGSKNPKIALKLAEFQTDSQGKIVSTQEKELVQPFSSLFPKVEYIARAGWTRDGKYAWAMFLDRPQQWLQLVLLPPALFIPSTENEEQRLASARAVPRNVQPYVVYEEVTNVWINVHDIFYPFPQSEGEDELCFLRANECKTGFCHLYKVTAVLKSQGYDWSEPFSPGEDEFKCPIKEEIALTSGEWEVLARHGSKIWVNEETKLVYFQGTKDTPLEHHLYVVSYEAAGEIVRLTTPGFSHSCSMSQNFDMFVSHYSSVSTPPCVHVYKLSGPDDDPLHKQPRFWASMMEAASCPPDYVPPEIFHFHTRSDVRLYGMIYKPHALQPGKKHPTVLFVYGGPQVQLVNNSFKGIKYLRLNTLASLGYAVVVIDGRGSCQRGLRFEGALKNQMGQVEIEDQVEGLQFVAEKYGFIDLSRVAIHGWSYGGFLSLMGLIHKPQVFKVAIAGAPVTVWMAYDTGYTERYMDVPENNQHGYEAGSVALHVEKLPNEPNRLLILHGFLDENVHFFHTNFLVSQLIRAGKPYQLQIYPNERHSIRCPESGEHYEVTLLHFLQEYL

Experiment [4] has as its target Human recombinant DPP9 (dipeptidyl peptidase 9), His-tagged (human) (UniProt Q86TI2). As to the kind of experiment: pull-down.

Read-outs that look alike come from different tables or passages of the source. Results are given in words; binding and its absence hold for the method and conditions named. For some of these results: Binding seen in cells or lysates may run through a third protein. Some results given as binding are weak or reduced against the parent protein; the word gives no strength. For some of these results: Sequences can lack the tags named with a protein.

For the molecule “Endogenous DPP9 in HeLa cells (from UniProt Q86TI2 1-863) (enzyme)”, the results for the binding entry in experiment [1] and in experiment [2] were “binds” and “no binding (condition: with 10 µM 1G244)”, respectively.
As to “Human recombinant DPP9 (dipeptidyl peptidase 9), His-tagged (from UniProt Q86TI2 1-863) (enzyme)”, the binding entry in experiment [3] is reported as “binds”.

B1: SLRFLYEG peptide (competitive DPP9 inhibitor) (peptide)
peptide: SLRFLYEG
As for B1, the binding entry in experiment [4] is reported as “binds”.

These data come from article doi:10.1101/2020.08.24.265033.
